Out of some 330,000 compounds screened, about 7,700 (2.3%) were called active. Inconclusive results, whose numbers are uncertain, are shown with a selection of clear calls. The call rests on the fitted dose curve; in most records, active means well fitted inhibition curve with a large enough effect; inconclusive means small, poorly fitted or top-dose-only effect, or effect the other way; inactive means flat fitted curve, though single readings scatter. Potencies of inconclusive entries are doubtful fits and often do not repeat.
Assay: qHTS screen for small molecules that inhibit ELG1-dependent DNA repair in human embryonic kidney (HEK293T) cells expressing luciferase-tagged ELG1; further: nearly all actives have a fitted effect of over 55% in size
Conditions: HEK293T ELG1-luciferase reporter, luminescence, 16 h, DNA damage induced by 5-fluorouridine; activity change, negative = inhibition: at 46.1 µM (top of the series)
Outline: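 Luminescence from the luciferase reporter, measured 30 min after ONE-Glo reagent at room temperature, was the read-out. Beforehand, 2,000 cells per well were exposed for 16 hr at 37 °C to 5-fluorouridine together with compound or vehicle.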
On the % scale 0 is the no-effect control and ±100 the full control effect; potency means the concentration at half of the fitted maximal effect.

| SMILES | Potency | activity change, negative = inhibition |
| --- | --- | --- |
| CC(NC(=O)COC(=O)Cn1cc(C(F)(F)F)ccc1=O)c1ccccc1 (stereo not drawn) | inconclusive: 11.6 µM [activator, partial curve, poor fit] |  |
| O=C(CCN1CCN(Cc2ccccc2)CC1)Nc1ccc(OCc2ccccc2)cc1 | inconclusive: 23.1 µM [inhibitor, partial curve, poor fit] |  |
| O=[N+]([O-])c1cc(C(F)(F)F)ccc1Sc1ccc2ccccc2n1 | inconclusive: 9.2 µM [activator, single point] |  |
| O=C(CSc1ncc(-c2ccc(F)cc2)n1Cc1ccco1)Nc1nccs1 |  | inactive: 2.53% |
| COc1ccc(CNC(=O)CN(C(=O)Cn2nnc(-c3ccccc3F)n2)c2ccc(C)cc2)cc1 | inconclusive: 16.4 µM [inhibitor, single point] |  |
| O=C1NCC(=O)N2C(c3ccccc3)c3[nH]c4ccccc4c3C[C@@H]12 (stereo partly drawn) | inconclusive: 29.1 µM [activator, single point] |  |
| CNc1nc2ccccc2n1CC(=O)c1ccccc1 | inconclusive: 23.1 µM [activator, single point] |  |
| Cn1cc(Br)c(C(=O)Nc2sc3c(c2C(N)=O)CCCC3)n1 | inconclusive: 11.6 µM [activator, partial curve] |  |
| CCCCCCn1nc(C(=O)OCC(=O)c2c(N)n(C)c(=O)n(C)c2=O)c2ccccc2c1=O | inconclusive: 20.6 µM [inhibitor, single point] |  |
| CCOc1ncccc1C(=O)Nc1ccc(OC)c(S(=O)(=O)N2CCCCC2)c1 | inconclusive: 18.3 µM [inhibitor, partial curve] |  |
| Cc1cccc(C)c1NC(=O)CNC(=O)c1cncc(Br)c1 |  | inactive: 20.1% |
| Cc1cc(SCc2ccc(Cl)cc2Cl)nc(=O)[nH]1 |  | inactive: -16.3% |
| CCN1CCC2(CC1)C(C#N)=C(N)Oc1c2sc2nc(C)cc(C)c12 |  | inactive: 19.7% |
| O=C(Cc1noc2ccccc12)Nc1ccc(Cl)cc1 | inconclusive: 23.1 µM [activator, single point] |  |
| Cc1nn2c(Nc3ccccc3)c3c(nc2c1-c1ccccc1)CCC3 | inconclusive: 25.9 µM [inhibitor, partial curve, poor fit] |  |
| CCCCCn1c2c(c(=N)c3ccccc31)CCC2 | active: 5.17 µM |  |
| COc1ccc(CN(C)S(=O)(=O)c2nnc(NC(=O)c3ccc(C)cc3)s2)cc1OC |  | inactive: 3.31% |
| Cc1cc(SCC(=O)NN=C2CCN(C(C)C)CC2)c(C)cc1Br |  | inactive: -1.24% |
| CCCN(CC(=O)Nc1ccccc1OC)C(=O)c1ccncc1 |  | inactive: -3.73% |
| CCc1c(C(=O)Nc2ccccc2C(N)=O)csc1C | inconclusive: 18.3 µM [activator, partial curve] |  |
| C=CCC(O)(CC=C)CNC(=O)c1ccc(OC)c(OC2CCN(C(C)=O)CC2)c1 |  | inactive: -1.5% |
| O=C(Cn1c(NCCCO)nc2ccccc21)c1ccc(Cl)cc1Cl | inconclusive: 0.259 µM [activator, single point] |  |
| CC(C)(C)NC(=O)C(=O)N/N=C/c1ccc(Br)cc1 | inconclusive: 29.1 µM [activator, single point] |  |

| SMILES | Potency | activity change, negative = inhibition |
| --- | --- | --- |
| Brc1cc2c(cc1/C=N/Nc1nc(N3CCOCC3)nc(N3CCOCC3)n1)OCO2 | inconclusive: 20.6 µM [inhibitor, partial curve] |  |
| Cn1c(=O)[nH]c(=O)c2c1nc(CN1CCN(c3cccc(Cl)c3)CC1)n2CCCc1ccccc1 | active: 9.2 µM |  |
| Cc1cccc(C(=O)OCC(=O)N(C)CC(=O)Nc2ccc(Cl)c(C(F)(F)F)c2)c1 |  | inactive: -2.58% |
| CCOC(=O)c1cn(Cc2ccc(C)cc2)nn1 | inconclusive: 32.6 µM [activator, partial curve, poor fit] |  |
| Cc1ccc(C2=NN(C(=S)Nc3ccccc3)C(c3ccco3)C2)cc1 (stereo not drawn) | inconclusive: 20.6 µM [activator, partial curve] |  |
| O=C(Nc1ccccc1F)n1ncc2cc(Cl)ccc21 | inconclusive: 25.9 µM [activator, single point] |  |
| Cc1ccc(S(=O)(=O)/N=C2/C=C(Sc3ncn[nH]3)C(=O)c3ccccc32)c(C)c1 | active: 20.6 µM |  |
| CCN(CC)S(=O)(=O)c1cccc(C(=O)N/N=C/c2ccc([N+](=O)[O-])o2)c1 | inconclusive: 18.3 µM [inhibitor, single point] |  |
| CC(C)[C@@H](C(=O)OCC(=O)Nc1ccc2c(c1)OCO2)N1C(=O)c2ccccc2C1=O | inconclusive: 20.6 µM [inhibitor, partial curve, poor fit] |  |
| COc1ccc(NC(=O)N2CCCC(c3ccccc3)C2)cc1 (stereo not drawn) |  | inactive: 25.4% |
| CC(C)S(=O)(=O)CC(=O)c1ccc(Cl)cc1 |  | inactive: 1.13% |
| COc1ccc(NC(=O)CN(C)C(=O)C2CSC3(C)CCC(=O)N23)cc1 (stereo not drawn) | inconclusive: 10 µM [activator, partial curve] |  |
| CC1(C2CC2)NC(=O)N(CC(=O)NCc2ccc(Cl)cc2Cl)C1=O (stereo not drawn) |  | inactive: 14.9% |
| Cc1ccc(S(=O)(=O)n2c3ccc(Cl)cc3c3nc(C)sc32)cc1 | inconclusive: 20.6 µM [activator, single point] |  |
| COc1ccc(C)cc1NC(=O)C(OC(=O)c1ccc([N+](=O)[O-])o1)c1ccccc1 (stereo not drawn) |  | inactive: 13.9% |
| COCCn1c(C)cc(C(=O)COC(=O)c2n[nH]c3ccccc23)c1C | inconclusive: 3.26 µM [activator, partial curve, poor fit] |  |
| COc1ccc(C(=O)N/N=C/c2ccc(N3CCOCC3)o2)cc1OC |  | inactive: 11.2% |
| CSC(=S)N/N=C/c1c[nH]c2ccccc12 | inconclusive: 23.1 µM [activator, single point] |  |
| COc1ccc(N(C)C(=S)Nc2ccc3nc(C)c(C)nc3c2)cc1 | inconclusive: 25.9 µM [inhibitor, single point] |  |
| O=C(c1cc(F)ccc1F)C1CCCN(C(=O)CCN2CCCCO2)C1 (stereo not drawn) |  | inactive: 21.1% |
| Cn1c2c(c(=O)n(C)c1=O)[C@@H]1c3c(ccc4ccccc34)OC[C@@H]1CO2 | inconclusive: 5.01 µM [activator, full curve, poor fit] |  |
| N#CCSc1ccccc1NC(=O)CN1C(=O)C2CC=CCC2C1=O (stereo not drawn) |  | inactive: 0.0247% |
| COc1ccc2c(c1)CC/C(=C\C=C\c1ccccc1)C2=O | inconclusive: 14.6 µM [activator, partial curve] |  |

Another view of part of the listing above:
C=CCC(O)(CC=C)CNC(=O)c1ccc(OC)c(OC2CCN(C(C)=O)CC2)c1
  activity change, negative = inhibition: inactive: -1.5%
O=C(Cn1c(NCCCO)nc2ccccc21)c1ccc(Cl)cc1Cl
  Potency: inconclusive: 0.259 µM [activator, single point]

Continued.

| SMILES | Potency | activity change, negative = inhibition |
| --- | --- | --- |
| CCOC(=O)c1c(C)[nH]c(C)c1C(=O)COC(=O)c1ccc(Cl)nc1 |  | inactive: 0.711% |
| O=C(NCCCN1CCCC1=O)c1ccc2c(c1)NC(=O)C(N1CCOCC1)S2 (stereo not drawn) |  | inactive: 6.9% |
| O=C(O)c1ccc(Oc2c(C(F)(F)F)oc3cc(O)ccc3c2=O)cc1 | inconclusive: 13 µM [activator, partial curve, poor fit] |  |
| c1ccc2c(c1)oc1c(N3CCN(Cc4ccc5c(c4)OCO5)CC3)ncnc12 | inconclusive: 29.1 µM [inhibitor, single point] |  |
| COCC(C)n1c(C)cc(C(=O)CSc2nc3ccccc3c(=O)[nH]2)c1C (stereo not drawn) | active: 16.4 µM |  |
| COc1cc(CN2CCCCCC2)cc(OC)c1O | inconclusive: 0.501 µM [inhibitor, partial curve, poor fit] |  |
| CCCn1c(N)c(C(=O)CN(C)CC(=O)Nc2ccccc2C(F)(F)F)c(=O)[nH]c1=O | active: 9.2 µM |  |
| O=C1NC[C@H](c2ccccc2)OC(=O)[C@@H](Cc2ccc(F)cc2)C/C=C\C[C@H]1CC(=O)N(CCO)Cc1ccccc1 | active: 2.59 µM |  |
| COc1ccc(C)cc1-n1nnnc1SCC(=O)Nc1cccnc1Cl | inconclusive: 25.9 µM [inhibitor, partial curve] |  |
| NNc1nc2c(-c3cccc(C(F)(F)F)c3)nnn2c2ccccc12 | inconclusive: 29.1 µM [inhibitor, single point] |  |
| C=CCn1c(COc2ccc(F)cc2)nnc1SCC(=O)NC(=O)NCc1ccco1 |  | inactive: 1.13% |
| CC[C@@H]1C=C(C)C[C@H](C)C[C@H](OC)[C@H]2O[C@@](O)(C(=O)C(=O)N3CCCC[C@H]3C(=O)O[C@H](/C(C)=C/[C@@H]3CC[C@@H](O)[C@H](OC)C3)[C@H](C)[C@@H](O)CC1=O)[C@H](C)C[C@@H]2OC | active: 8.2 µM |  |
| COc1cccc2cc(C(=O)C3=C(O)C(=O)N(CCCN(C)C)C3c3ccncc3)oc12 (stereo not drawn) |  | inactive: -0.899% |
| COc1ccc(NC(=O)C2=C(C)Nc3nc(CCCO)nn3C2c2ccc(OC)c(OC)c2)cc1 (stereo not drawn) | inconclusive: 29.1 µM [inhibitor, single point] |  |
| CCOC(=O)Nc1ccc2c(c1)nc1n2CCN(CCOC)C1 | inconclusive: 13 µM [activator, partial curve] |  |
| CCOC(=O)C1=NN(C(=O)COc2ccccc2)C(O)(c2ccc(Br)cc2)C1 (stereo not drawn) |  | inactive: -3.37% |
| CCN(CC)C(=O)CSCc1cnn(-c2ccccc2)c1-n1cccc1 | inconclusive: 23.1 µM [inhibitor, partial curve, poor fit] |  |
| Cc1ccc2c(c1)-c1nc3ccccc3cc1C2=NC1CCCCC1 | inconclusive: 3.66 µM [activator, full curve] |  |
| COc1cc(C(=O)OCC(=O)c2cc(C)n(C)c2C)cc(NC(=O)c2ccco2)c1OC | inconclusive: 6.51 µM [inhibitor, single point] |  |
| CCOC(=O)C1=C(C)NC(C)=C(C(=O)OCC)C1C(=O)OCC(=O)NC(C)c1ccccc1 (stereo not drawn) | inconclusive: 14.6 µM [inhibitor, partial curve] |  |
| CCc1ccc(N2CSC3=C(C#N)C(c4cccs4)CC(=O)N3C2)cc1 (stereo not drawn) | inconclusive: 18.4 µM [activator, single point] |  |
| COc1ccc2c(c1)O[C@H](c1ccc3c(c1)OCO3)[C@@H](O)C2=O | inconclusive: 18.4 µM [activator, single point] |  |

Source: PubChem BioAssay AID504467 (National Center for Advancing Translational Sciences (NCATS), 2011)
